Measured values published in the supplement of paper PMC11637464.
Structures can show the parent of a compound that is named as a salt. The list shows a part of the results. Repeats are few or missing, and single values can be far off.

Tested on: primary mouse Muller glia with Ascl1 overexpression
Assay: Neuronal cell count fold change vs Ascl1-only control (log2 fold change); higher = more neurogenesis
Protocol: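 Primary P11 mouse Muller glia carrying dox-inducible Ascl1 were treated with Tocriscreen Stem Cell Library compounds at 0.1, 1 or 10 uM together with doxycycline for 5 days, then profiled by sci-Plex hashing and sci-RNA-seq2. Cells were annotated by marker genes and cell-type counts per well were size-factor adjusted. Read-outs are the log2 fold change of Neuronal (NeuPre + bipolar) and ProL cell counts versus the Ascl1-only control wells of the same collection day, plus the raw number of recovered cells per well. There is one well per dose, and wells with fewer than 20 cells were discarded.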

Row | Compound | Neuronal cell count fold change (0.1 µM) | Neuronal cell count fold change (1 µM) | Neuronal cell count fold change (10 µM)
1 | C=C[C@@]1(C)CC(=O)[C@]2(O)[C@@]3(C)[C@@H](O)CCC(C)(C)[C@@H]3[C@H](O)[C@H](OC(C)=O)[C@@]2(C)O1 [Forskolin] (collection day: 1) | -0.12 | -0.252 | -0.184
2 | Cc1ccc(-c2cn3c4c(sc3n2)CCCC4)cc1 [Cyclic Pifithrin-alpha hydrobromide] (collection day: 2) | -0.531 |  | 
3 | CCn1c(=O)[nH]c2ccccc21 (collection day: 1) | -0.184 | -0.474 | -0.12
4 | Cc1nn(-c2ccccc2)c(C)c1C=NN1CCN(Cc2ccccc2)CC1 (collection day: 1) | -0.252 | -0.12 | -0.474
5 | Cc1c(C)c2c(c(C)c1O)CCC(C)(COc1ccc(CC3SC(=O)NC3=O)cc1)O2 (stereo not given) [Troglitazone] (collection day: 1) | 0 |  | 
6 | Nc1ncn([C@@H]2O[C@H](CO)[C@@H](O)[C@H]2O)c(=O)n1 [5-Azacytidine] (collection day: 2) | 0.3 | -0.531 | -0.7
7 | c1cc(-c2cnn3cc(-c4ccc(OCCN5CCCCC5)cc4)cnc23)ccn1 [Dorsomorphin dihydrochloride] (collection day: 1) | -0.556 | 0 | 
8 | Nc1[nH]ncc1-c1cc(Cl)ccc1Oc1cc(F)c(S(=O)(=O)Nc2cscn2)cc1Cl (collection day: 2) | -0.7 | -0.115 | -1.7
9 | COC(=O)C1=C(C)NC(C)=C([N+](=O)[O-])C1c1ccccc1C(F)(F)F (stereo not given) (collection day: 1) | -0.252 | -0.644 | -0.837
10 | CN(C)C(=N)NC(=N)N [Metformin hydrochloride] (collection day: 1) | -0.184 | -0.322 | -0.556
11 | CCCCC(CC)CNC(=N)NC(=N)NCCCCCCNC(=N)NC(=N)NCC(CC)CCCC (stereo not given) [Alexidine dihydrochloride] (collection day: 2) | -1.7 |  | 
12 | Nc1nc(N)c2nc(-c3cccc(Cl)c3)c(N)nc2n1 [Epiblastin A] (collection day: 2) | 0 | -0.115 | -0.115
13 | CN(CCOc1ccc(CC2SC(=O)NC2=O)cc1)c1ccccn1 (stereo not given) [Rosiglitazone] (collection day: 2) | 0.107 | 0 | 0
14 | Nc1ncn([C@H]2C[C@H](O)[C@@H](CO)O2)c(=O)n1 [Decitabine] (collection day: 1) | -0.474 | -0.184 | -0.556
15 | O=C(O)c1ccc(S(=O)(=O)NC2CCCCC2)cc1 (collection day: 2) | 0.107 | -0.241 | -0.379
16 | Cc1ccccc1N=Nc1ccc(NC(=O)c2ccnn2C)c(C)c1 (collection day: 2) | 0 | 0.3 | 

Single values from above:
Cc1nn(-c2ccccc2)c(C)c1C=NN1CCN(Cc2ccccc2)CC1 (collection day: 1) | Neuronal cell count fold change (0.1 µM): -0.252
Nc1[nH]ncc1-c1cc(Cl)ccc1Oc1cc(F)c(S(=O)(=O)Nc2cscn2)cc1Cl (collection day: 2) | Neuronal cell count fold change (1 µM): -0.115
